Source: the supplement of paper PMC7646827
Structures can show the parent of a compound that is named as a salt. Single values are uncertain, as repeats are few or missing.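 All cells are established human bladder cancer lines, one of them grown from a patient-derived xenograft. Viability was read by a luminescent ATP assay as percent inhibition versus vehicle over a seven-point dilution series; the paper calls scores above 59 very active, 30–59 active, 21–29 semi-active, 9–20 low active and below 9 inactive.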

Experiments:
Experiment in all cases: drug sensitivity score DSS3 (score 0-100); higher = more sensitive; extreme values may be limits of the assay
Settings in all cases: culture: 3D, ultra-low attachment; treatment time: 5 days
UM-UC-14 = tested on: UM-UC-14
UM-UC-9 = tested on: UM-UC-9
TCCSUP = tested on: TCCSUP
SW780 = tested on: SW780
UM-UC-15 = tested on: UM-UC-15
UM-UC-6 = tested on: UM-UC-6
T-24 = tested on: T-24
UM-UC-1 = tested on: UM-UC-1
SCaBER = tested on: SCaBER
UM-UC-5 = tested on: UM-UC-5
UM-UC-3 = tested on: UM-UC-3
J82 = tested on: J82
UM-UC-18 = tested on: UM-UC-18
5637 = tested on: 5637
UM-UC-17 = tested on: UM-UC-17
BC8149 = tested on: BC8149
UM-UC-12 = tested on: UM-UC-12

CN(Cc1cnc2nc(N)nc(N)c2n1)c1ccc(C(=O)N[C@@H](CCC(=O)O)C(=O)O)cc1 [Methotrexate] (max dose 10000 nM)
drug sensitivity score DSS3 (UM-UC-14): 60.1
drug sensitivity score DSS3 (UM-UC-9): 31.6
drug sensitivity score DSS3 (TCCSUP): 41.2
drug sensitivity score DSS3 (SW780): 28.5
drug sensitivity score DSS3 (UM-UC-15): 0
drug sensitivity score DSS3 (UM-UC-6): 16.4
drug sensitivity score DSS3 (T-24): 0
drug sensitivity score DSS3 (UM-UC-1): 37
drug sensitivity score DSS3 (SCaBER): 1.68
drug sensitivity score DSS3 (UM-UC-5): 0
drug sensitivity score DSS3 (UM-UC-3): 22.7
drug sensitivity score DSS3 (J82): 0.269
drug sensitivity score DSS3 (UM-UC-18): 22.9
drug sensitivity score DSS3 5637: 47
drug sensitivity score DSS3 (UM-UC-17): 61.3
drug sensitivity score DSS3 (BC8149): 3.94
drug sensitivity score DSS3 (UM-UC-12): 0

CON [Methoxyamine hydrochloride] (max dose 10000 nM)
drug sensitivity score DSS3 (UM-UC-14): 3.36
drug sensitivity score DSS3 (UM-UC-9): 5.27
drug sensitivity score DSS3 (TCCSUP): 7.65
drug sensitivity score DSS3 (SW780): 0
drug sensitivity score DSS3 (UM-UC-15): 9.81
drug sensitivity score DSS3 (UM-UC-6): 4.57
drug sensitivity score DSS3 (T-24): 18.6
drug sensitivity score DSS3 (UM-UC-1): 7.85
drug sensitivity score DSS3 (SCaBER): 10.2
drug sensitivity score DSS3 (UM-UC-5): 8.29
drug sensitivity score DSS3 (UM-UC-3): 6.65
drug sensitivity score DSS3 (J82): 0
drug sensitivity score DSS3 (UM-UC-18): 7.19
drug sensitivity score DSS3 5637: 11.9
drug sensitivity score DSS3 (UM-UC-17): 5.78
drug sensitivity score DSS3 (BC8149): 8.52
drug sensitivity score DSS3 (UM-UC-12): 0

O=C1c2c(O)ccc(O)c2C(=O)c2c(NCCNCCO)ccc(NCCNCCO)c21 [Mitoxantrone HCl] (max dose 10000 nM)
drug sensitivity score DSS3 (UM-UC-14): 28.4
drug sensitivity score DSS3 (UM-UC-9): 2.1
drug sensitivity score DSS3 (TCCSUP): 41.9
drug sensitivity score DSS3 (SW780): 0.451
drug sensitivity score DSS3 (UM-UC-15): 0.0974
drug sensitivity score DSS3 (UM-UC-6): 8.81
drug sensitivity score DSS3 (T-24): 1.07
drug sensitivity score DSS3 (UM-UC-1): 29.3
drug sensitivity score DSS3 (SCaBER): 4.69
drug sensitivity score DSS3 (UM-UC-5): 0.122
drug sensitivity score DSS3 (UM-UC-3): 15.8
drug sensitivity score DSS3 (J82): 0
drug sensitivity score DSS3 (UM-UC-18): 41.6
drug sensitivity score DSS3 5637: 24.9
drug sensitivity score DSS3 (UM-UC-17): 17.7
drug sensitivity score DSS3 (BC8149): 32.2
drug sensitivity score DSS3 (UM-UC-12): 5.27

Nc1ccccc1NC(=O)c1ccc(CNc2nccc(-c3cccnc3)n2)cc1 [Mocetinostat (MGCD0103)] (max dose 10000 nM)
drug sensitivity score DSS3 (UM-UC-14): 2.86
drug sensitivity score DSS3 (UM-UC-9): 1.88
drug sensitivity score DSS3 (TCCSUP): 47.7
drug sensitivity score DSS3 (SW780): 1.72
drug sensitivity score DSS3 (UM-UC-15): 0
drug sensitivity score DSS3 (UM-UC-6): 3
drug sensitivity score DSS3 (T-24): 7.25
drug sensitivity score DSS3 (UM-UC-1): 2.41
drug sensitivity score DSS3 (SCaBER): 37.8
drug sensitivity score DSS3 (UM-UC-5): 5.59
drug sensitivity score DSS3 (UM-UC-3): 1.27
drug sensitivity score DSS3 (J82): 4.86
drug sensitivity score DSS3 (UM-UC-18): 10.1
drug sensitivity score DSS3 5637: 20.1
drug sensitivity score DSS3 (UM-UC-17): 2.3
drug sensitivity score DSS3 (BC8149): 41.9
drug sensitivity score DSS3 (UM-UC-12): 4.24

CC1(C)CNc2cc(NC(=O)c3cccnc3NCc3ccncc3)ccc21 [Motesanib Diphosphate (AMG-706)] (max dose 10000 nM)
drug sensitivity score DSS3 (UM-UC-14): 0.0487
drug sensitivity score DSS3 (UM-UC-9): 0
drug sensitivity score DSS3 (TCCSUP): 0
drug sensitivity score DSS3 (SW780): 0
drug sensitivity score DSS3 (UM-UC-15): 0.718
drug sensitivity score DSS3 (UM-UC-6): 0
drug sensitivity score DSS3 (T-24): 0.964
drug sensitivity score DSS3 (UM-UC-1): 0
drug sensitivity score DSS3 (SCaBER): 0
drug sensitivity score DSS3 (UM-UC-5): 0
drug sensitivity score DSS3 (UM-UC-3): 3.24
drug sensitivity score DSS3 (J82): 0
drug sensitivity score DSS3 (UM-UC-18): 0
drug sensitivity score DSS3 5637: 0.156
drug sensitivity score DSS3 (UM-UC-17): 0
drug sensitivity score DSS3 (BC8149): 3.25
drug sensitivity score DSS3 (UM-UC-12): 1.89

CCCN(CCC)C(=O)C1=Cc2ccc(-c3ccc(C(=O)N4CCCC4)cc3)cc2N=C(N)C1 [Motolimod (VTX-2337)] (max dose 10000 nM)
drug sensitivity score DSS3 (UM-UC-14): 0
drug sensitivity score DSS3 (UM-UC-9): 0
drug sensitivity score DSS3 (TCCSUP): 0
drug sensitivity score DSS3 (SW780): 0
drug sensitivity score DSS3 (UM-UC-15): 0
drug sensitivity score DSS3 (UM-UC-6): 0.734
drug sensitivity score DSS3 (T-24): 0
drug sensitivity score DSS3 (UM-UC-1): 0
drug sensitivity score DSS3 (SCaBER): 0
drug sensitivity score DSS3 (UM-UC-5): 0
drug sensitivity score DSS3 (UM-UC-3): 0
drug sensitivity score DSS3 (J82): 0
drug sensitivity score DSS3 (UM-UC-18): 0
drug sensitivity score DSS3 5637: 0
drug sensitivity score DSS3 (UM-UC-17): 0
drug sensitivity score DSS3 (BC8149): 0
drug sensitivity score DSS3 (UM-UC-12): 0

FC(F)(F)c1ccc(/C=C/c2nc(COc3ccc(CCCCn4ccnn4)cc3)co2)cc1 [Mubritinib (TAK 165)] (max dose 10000 nM)
drug sensitivity score DSS3 (UM-UC-14): 25.6
drug sensitivity score DSS3 (UM-UC-9): 11.4
drug sensitivity score DSS3 (TCCSUP): 5.83
drug sensitivity score DSS3 (SW780): 11.6
drug sensitivity score DSS3 (UM-UC-15): 0
drug sensitivity score DSS3 (UM-UC-6): 12.6
drug sensitivity score DSS3 (T-24): 0
drug sensitivity score DSS3 (UM-UC-1): 24.9
drug sensitivity score DSS3 (SCaBER): 0
drug sensitivity score DSS3 (UM-UC-5): 3.7
drug sensitivity score DSS3 (UM-UC-3): 2.23e-06
drug sensitivity score DSS3 (J82): 0
drug sensitivity score DSS3 (UM-UC-18): 0
drug sensitivity score DSS3 5637: 0
drug sensitivity score DSS3 (UM-UC-17): 12.5
drug sensitivity score DSS3 (BC8149): 0
drug sensitivity score DSS3 (UM-UC-12): 0

COc1c(C)c2c(c(O)c1C/C=C(\C)CCC(=O)OCCN1CCOCC1)C(=O)OC2 [Mycophenolate Mofetil] (max dose 10000 nM)
drug sensitivity score DSS3 (UM-UC-14): 7.84
drug sensitivity score DSS3 (UM-UC-9): 2.62
drug sensitivity score DSS3 (TCCSUP): 15.5
drug sensitivity score DSS3 (SW780): 0.45
drug sensitivity score DSS3 (UM-UC-15): 41.8
drug sensitivity score DSS3 (UM-UC-6): 3.13
drug sensitivity score DSS3 (T-24): 0
drug sensitivity score DSS3 (UM-UC-1): 2.05
drug sensitivity score DSS3 (SCaBER): 0
drug sensitivity score DSS3 (UM-UC-5): 0.00668
drug sensitivity score DSS3 (UM-UC-3): 7.23
drug sensitivity score DSS3 (J82): 0
drug sensitivity score DSS3 (UM-UC-18): 5.44
drug sensitivity score DSS3 5637: 4.83
drug sensitivity score DSS3 (UM-UC-17): 7.08
drug sensitivity score DSS3 (BC8149): 6.22
drug sensitivity score DSS3 (UM-UC-12): 2.47

COc1c(C)c2c(c(O)c1C/C=C(\C)CCC(=O)O)C(=O)OC2 [Mycophenolic acid] (max dose 10000 nM)
drug sensitivity score DSS3 (UM-UC-14): 0.00402
drug sensitivity score DSS3 (UM-UC-9): 1.41
drug sensitivity score DSS3 (TCCSUP): 1.16
drug sensitivity score DSS3 (SW780): 0
drug sensitivity score DSS3 (UM-UC-15): 0
drug sensitivity score DSS3 (UM-UC-6): 0
drug sensitivity score DSS3 (T-24): 0
drug sensitivity score DSS3 (UM-UC-1): 1.59
drug sensitivity score DSS3 (SCaBER): 0
drug sensitivity score DSS3 (UM-UC-5): 0
drug sensitivity score DSS3 (UM-UC-3): 0.58
drug sensitivity score DSS3 (J82): 0
drug sensitivity score DSS3 (UM-UC-18): 2.69
drug sensitivity score DSS3 5637: 2.25
drug sensitivity score DSS3 (UM-UC-17): 0
drug sensitivity score DSS3 (BC8149): 0.479
drug sensitivity score DSS3 (UM-UC-12): 0

CCCCCCCCCCCCCCCCn1cc[n+](Cc2ccccc2)c1C [NH125] (max dose 10000 nM)
drug sensitivity score DSS3 (UM-UC-14): 0.619
drug sensitivity score DSS3 (UM-UC-9): 0
drug sensitivity score DSS3 (TCCSUP): 4.59
drug sensitivity score DSS3 (SW780): 0
drug sensitivity score DSS3 (UM-UC-15): 5.76
drug sensitivity score DSS3 (UM-UC-6): 0
drug sensitivity score DSS3 (T-24): 0
drug sensitivity score DSS3 (UM-UC-1): 1.89
drug sensitivity score DSS3 (SCaBER): 2.53
drug sensitivity score DSS3 (UM-UC-5): 0.317
drug sensitivity score DSS3 (UM-UC-3): 1.85
drug sensitivity score DSS3 (J82): 0
drug sensitivity score DSS3 (UM-UC-18): 0.864
drug sensitivity score DSS3 5637: 3.08
drug sensitivity score DSS3 (UM-UC-17): 0.497
drug sensitivity score DSS3 (BC8149): 2.49
drug sensitivity score DSS3 (UM-UC-12): 0.182

CN1CCC(NC(=O)c2cc(-c3c(O)cc(O)cc3Oc3ccc([N+](=O)[O-])cc3)on2)CC1 [NMS-E973] (max dose 10000 nM)
drug sensitivity score DSS3 (UM-UC-14): 0.559
drug sensitivity score DSS3 (UM-UC-9): 9.86
drug sensitivity score DSS3 (TCCSUP): 18.7
drug sensitivity score DSS3 (SW780): 0
drug sensitivity score DSS3 (UM-UC-15): 12.9
drug sensitivity score DSS3 (UM-UC-6): 0
drug sensitivity score DSS3 (T-24): 26.1
drug sensitivity score DSS3 (UM-UC-1): 9.86
drug sensitivity score DSS3 (SCaBER): 13.1
drug sensitivity score DSS3 (UM-UC-5): 8.92
drug sensitivity score DSS3 (UM-UC-3): 29.4
drug sensitivity score DSS3 (J82): 0
drug sensitivity score DSS3 (UM-UC-18): 14.3
drug sensitivity score DSS3 5637: 10.5
drug sensitivity score DSS3 (UM-UC-17): 6.33
drug sensitivity score DSS3 (BC8149): 26.5
drug sensitivity score DSS3 (UM-UC-12): 13.4

Nc1nc(N)c(N=O)c(OCC2CCCCC2)n1 [NU6027] (max dose 10000 nM)
drug sensitivity score DSS3 (UM-UC-14): 0
drug sensitivity score DSS3 (UM-UC-9): 0
drug sensitivity score DSS3 (TCCSUP): 1.82
drug sensitivity score DSS3 (SW780): 0
drug sensitivity score DSS3 (UM-UC-15): 6.04
drug sensitivity score DSS3 (UM-UC-6): 0
drug sensitivity score DSS3 (T-24): 0
drug sensitivity score DSS3 (UM-UC-1): 0
drug sensitivity score DSS3 (SCaBER): 0
drug sensitivity score DSS3 (UM-UC-5): 0
drug sensitivity score DSS3 (UM-UC-3): 0
drug sensitivity score DSS3 (J82): 0
drug sensitivity score DSS3 (UM-UC-18): 0
drug sensitivity score DSS3 5637: 0
drug sensitivity score DSS3 (UM-UC-17): 0
drug sensitivity score DSS3 (BC8149): 0
drug sensitivity score DSS3 (UM-UC-12): 0
